From PubChem BioAssay AID1347075 (National Center for Advancing Translational Sciences (NCATS), 2019)
Values joined by “and” are separate entries in the source; they are usually repeats but may differ in a detail not shown here. Equal values may be shown once. The whole screen tested about 400,000 compounds, of which about 5,500 (1.4%) were called active. Inconclusive results, whose numbers are uncertain, are shown with a selection of clear calls. Calls follow the shape of the dose curve; as a rule, active = well fitted cell-killing curve with a large enough effect; inconclusive = small, poorly fitted or top-dose-only effect, or effect the other way; inactive = flat fitted curve, though single readings scatter. Potencies beside an inconclusive call are fits to weak or partial responses and may not hold up.
% is scaled to controls: 0 for no effect and ±100 for the full control effect; potency is read from the fitted curve at half-maximal effect.

Assay: qHTS assay for MDR1-selective chemotherapeutics: Primary screen using the parental adenocarcinoma cell KB-3-1; also: nearly all actives have a fitted effect of over 60% in size
Settings: KB-3-1 viability, CellTiter-Glo ATP luminescence, 72 h; activity change, negative = cytotoxic: at 46.1 µM (top of the series)
Procedure, shortened: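 Screening of KB-3-1 cells (DMEM, 10% FBS, phenol-red free) ran from lowest to highest compound concentration; after 72 h at 37 °C viability was read luminescently and curves fitted.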
For `CCOc1ccc(NC(=O)c2ccc(NC(=O)c3cn4c5c(c(N6CCN(C)CC6)c(F)cc5c3=O)OCC4C)cc2)cc1` (stereo unspecified), the Potency was inconclusive: 29.1 µM [rising, single point].
In the case of `COc1ccccc1N=c1oc2cc(O)ccc2cc1C(N)=O`, the Potency is reported as inconclusive: 16.4 µM [cytotoxic, single point].
In the case of `Cc1ccccc1C(=O)O/N=C(\N)Cc1cccs1`, the Potency is reported as inconclusive: 29.1 µM [cytotoxic, single point].
With `COC(=O)C1=C(C(=O)OC)[C@@H]2Nc3ccccc3[C@@]23C[C@@H](C(=O)OC)N(C(=O)c2cccs2)C3=N1` the Potency was “inactive”.
For `CCCn1c(=O)n(C)c(=O)c2c(SCC(=O)Nc3cc(C)on3)nc(C(C)(C)C)nc21`, the Potency was inconclusive: 32.6 µM [cytotoxic, single point].
With `COc1ccc(S(=O)(=O)N2CCc3ccccc32)cc1C(=O)Nc1ccc(C(N)=O)cc1` the Potency was inconclusive: 29.1 µM [cytotoxic, single point].
With `COc1ccccc1-c1nnc(Sc2nc([N+](=O)[O-])nn2C)o1` the Potency was inconclusive: 29.1 µM [cytotoxic, single point].
In the case of `COc1cc(NC(=O)CCN2C(=O)NC3(CCCC3)C2=O)c(OC)cc1Cl`, the Potency is reported as inconclusive: 20.6 µM [cytotoxic, single point].
With `CSc1nc(N(C)NC(=O)c2ccc(Cl)cc2)c2ccccc2n1` the Potency was active: 0.58 µM.
For `COC(=O)N/N=C/c1cc(C)n(-c2ccc(Br)cc2)c1C`, the Potency was inconclusive: 11.6 µM [cytotoxic, partial curve].
For `Cn1c(=O)c2c(SCc3c(F)cccc3Cl)nc(CC(C)(C)C)nc2n(C)c1=O`, the Potency was inconclusive: 18.4 µM [cytotoxic, single point].
With `Cc1ccccc1-c1nc2c(=O)n(C)c(=O)nc-2n(C)n1` the Potency was active: 2.06 µM.
For `CC(C)n1c(CNC(=O)c2ccccc2F)nnc1SCC(=O)c1ccc(F)cc1`, the Potency was “inactive”.
In the case of `Cc1cccc2nc(CSc3nc4ccc([N+](=O)[O-])cc4[nH]3)c(Br)n12`, the Potency is reported as inconclusive: 20.6 µM [rising, single point].
In the case of `Cc1c(NC(=O)Nc2c(Cl)cccc2Cl)c(=O)n(-c2ccccc2)n1C`, the Potency is reported as “inactive”.
With `Cc1ccc(CN(Cc2cccn2-c2nnc(N3CCCC3=O)s2)C(=O)Nc2ccccc2Cl)cc1` the Potency was “inactive”.
For `Cc1cc(C)c2c(NC(=O)c3ccccc3Cl)c(C(=O)NCc3ccc(Cl)cc3)sc2n1`, the Potency was inconclusive: 29.1 µM [cytotoxic, single point].
For `COCCCNC(=S)N(CCO)Cc1cc2cc3c(cc2[nH]c1=O)OCCO3`, the Potency was inconclusive: 29.1 µM [cytotoxic, single point].
With `O=C(CSc1nnc(-c2ccc(Cl)cc2)n1Cc1ccco1)NCc1ccc2c(c1)OCO2` the Potency was inconclusive: 23.1 µM [cytotoxic, partial curve, poor fit].
For `CCS(=O)(=O)c1ccc(-c2csc(-c3ccccc3Cl)n2)c(Cl)c1Cl`, the Potency was “inactive”.
For `COc1ccc(OCCCn2c(C3CC(=O)N(c4ccc(F)cc4)C3)nc3ccccc32)cc1` (stereo unspecified), the Potency was inconclusive: 29.1 µM [cytotoxic, partial curve, poor fit].
In the case of `Cc1nc2c(-c3ccc(F)cc3)c(C)nn2c(C)c1CCC(=O)NCc1ccc(F)cc1`, the Potency is reported as “inactive”.
For `COc1ccc(OC)c(-c2noc(N3CCN(c4cccc(C(F)(F)F)c4)CC3)n2)c1`, the Potency was inconclusive: 23.1 µM [rising, single point].
In the case of `CCCn1c(SCC(=O)Nc2cccc(C(=O)OCC)c2)nnc1-c1ccoc1C`, the Potency is reported as inconclusive: 18.4 µM [cytotoxic, partial curve, poor fit].
In the case of `COc1cc(OC)c2ccc(=O)oc2c1C(CC(=O)N1CCCC(C)C1)c1ccc2c(c1)OCO2` (stereo unspecified), the Potency is reported as “inactive”.
For `C=CCN(c1ccccc1OC)S(=O)(=O)c1cccc(C(=O)NC2=NCCS2)c1`, the Potency was “inactive”.
With `CCOC(=O)c1c(C)[nH]c(C)c1C(=O)COC(=O)/C=C/c1cccc(Cl)c1` the Potency was “inactive”.
With `CCC(=O)/C=C1\Sc2ccc(OC)cc2N1CC` the Potency was inconclusive: 23.1 µM [cytotoxic, single point].
For `Cc1ccc2nc(-c3ccc4c(c3)OCCO4)cn2c1`, the Potency was active: 3.66 µM.
With `CCCCC(O)(c1ccc(CC)cc1)C(CN1CCOCC1)c1ccccc1` (stereo unspecified) the Potency was active: 16.4 µM.
With `O=C(NCCCN1CCN(c2ccc(F)cc2)CC1)Nc1ccccc1Cl` the Potency was “inactive”.
For `CCN(CC)C(=O)c1ccc2c3c(cccc13)C(=O)N(CCc1ccc(OC)c(OC)c1)C2=O`, the Potency was inconclusive: 29.1 µM [cytotoxic, single point].
In the case of `CCN(CC)C(=O)CSc1nc2c(sc(=S)n2Cc2ccco2)c(=O)n1-c1ccccc1`, the Potency is reported as “inactive”.
In the case of `Cc1cc(C)c(OCC(=O)NCC(c2ccco2)N2CCCCC2)c(C)c1` (stereo unspecified), the Potency is reported as “inactive”.
For `COc1ccc(-c2nc3cnccn3c2NC2CCCCC2)cc1-c1cccc(Cl)c1`, the Potency was inconclusive: 20.6 µM [cytotoxic, single point] and inconclusive: 29.1 µM [cytotoxic, single point].
For `COc1ccc(-n2c(C)nnc2SCC(=O)Nc2ccccc2F)cc1`, the Potency was “inactive”.
In the case of `COc1ccc(C(=O)C2CCCN(Cc3cnc(N4CCCC4)s3)C2)cc1OC` (stereo unspecified), the Potency is reported as “inactive”.
With `CC1=C(C(=O)Nc2ccccc2)C(c2ccc(Br)cc2)n2nc(CCCO)nc2N1` (stereo unspecified) the Potency was “inactive”.
In the case of `O=C(Nc1ccc(S(=O)(=O)Nc2ncccn2)cc1)c1nn(Cc2ccccc2)c(=O)c2ccccc12`, the activity change, negative = cytotoxic is reported as inconclusive: -0.979%.
For `CCOC(=O)Nc1cc2c(cc1[N+](=O)[O-])-c1ccccc1C2=O`, the Potency was “inactive”.
In the case of `COc1ccccc1N(C)S(=O)(=O)c1ccc(C(=O)NC(C)c2ccccc2)cc1` (stereo unspecified), the Potency is reported as “inactive”.
For `CCOC(=O)CSC1=NC(=O)/C(=C/c2ccc(OC)cc2)S1`, the Potency was active: 11.6 µM.
In the case of `Cc1nnc(NC(=O)c2ccc(S(=O)(=O)N3CCCCCC3)cc2)o1`, the Potency is reported as inconclusive: 25.9 µM [cytotoxic, single point].
For `COc1ccc(CN(C)CC(=O)Nc2ccccc2-c2ccccc2)c(OC)c1`, the Potency was inconclusive: 18.4 µM [cytotoxic, single point].
For `COc1cc(C(=O)N/N=C(\C)c2ccc3c(c2)OCO3)cc(OC)c1OC`, the Potency was active: 4.61 µM.
For `CC(=O)NS(=O)(=O)c1ccc(NC(=O)c2cc(-c3cccs3)nc3ccccc23)cc1`, the Potency was inconclusive: 16.4 µM [rising, partial curve, poor fit].
In the case of `CCCc1cc(=O)[nH]c(Nc2cc(Cl)cc(Cl)c2)n1`, the Potency is reported as inconclusive: 20.6 µM [cytotoxic, single point].
With `N#Cc1nc(N2CCCC2)nc(N(c2ccccc2)c2ccccc2)n1` the Potency was “inactive”.
With `CCOc1ccc2oc(C(=O)OCC(=O)N3CCCC(C)C3)c(C)c2c1` (stereo unspecified) the Potency was inconclusive: 29.1 µM [cytotoxic, single point].
For `Cc1ccc(/C=N/Nc2ccccn2)s1`, the activity change, negative = cytotoxic was inconclusive: 0.494%.
In the case of `COc1ccc(-n2[nH]c3c(cnc4ccccc43)c2=O)cc1`, the Potency is reported as inconclusive: 3.66 µM [rising, partial curve, poor fit].
In the case of `O=C(CCCCCn1c(=O)[nH]c2ccccc2c1=O)N1CCN(c2cccc(C(F)(F)F)c2)CC1`, the Potency is reported as inconclusive: 23.1 µM [cytotoxic, partial curve, poor fit].
With `COc1cc2c(cc1OC)C(C(=O)NCCN1CCOCC1)C1c3ccccc3CCN1C2=O` (stereo unspecified) the Potency was “inactive”.
With `CN(NC(=O)c1ccccc1)c1nc2ccccc2nc1C(F)(F)F` the Potency was active: 2.91 µM.
In the case of `CCN(CC)CCC(=O)Nc1cccc2c1C(=O)c1ccccc1C2=O`, the Potency is reported as inconclusive: 29.1 µM [cytotoxic, single point].
With `Cc1ccc(C(=O)NCc2ccc3c(c2)CCO3)cc1C` the Potency was inconclusive: 20.6 µM [cytotoxic, partial curve, poor fit].
For `COc1ccc(N2CC(O)=C(c3nc(-c4ccccc4)cs3)C2=N)cc1`, the Potency was inconclusive: 23.1 µM [cytotoxic, single point].
In the case of `OCC1OC(n2cnc3c(=S)nc[nH]c32)C(O)C1O` (stereo unspecified), the Potency is reported as active: 366 nM and active: 580 nM.
In the case of `Cc1cccc(N2CN(Cc3ccco3)CNC2=S)c1C`, the Potency is reported as “inactive”.
In the case of `O=C(O)c1c2c(nc3ccccc13)/C(=C/c1cccc([N+](=O)[O-])c1)CCC2`, the Potency is reported as inconclusive: 25.9 µM [cytotoxic, partial curve, poor fit].
With `Cc1cccc(N2CC(C(=O)OCC(=O)Nc3sccc3C(N)=O)CC2=O)c1C` (stereo unspecified) the Potency was “inactive”.
With `Cc1ccccc1NC(=O)c1sc2nc(-c3cc4ccccc4oc3=O)[nH]c(=O)c2c1C` the Potency was “inactive”.
For `CCCCNC(=O)Nc1nnc(SCC(=O)OCC)s1`, the Potency was “inactive”.
With `CCOCCCNC(=O)CSCc1nc(-c2ccc(SC)cc2)oc1C` the Potency was “inactive”.
With `Cc1cc(C)c[n+](CC(=O)c2ccc(-c3ccccc3)cc2)c1` the Potency was inconclusive: 29.1 µM [cytotoxic, single point].
For `CCOC(=O)c1ccccc1OCc1cc(C2Nc3ccccc3C(=O)N2c2cccc3ccccc23)ccc1OC` (stereo unspecified), the Potency was inconclusive: 29.1 µM [rising, single point].
For `CN(C)S(=O)(=O)c1cccc(NC(=O)CSc2cccc3cccnc23)c1`, the Potency was inconclusive: 13 µM [cytotoxic, partial curve].
In the case of `COC(=O)[C@]1(C)N[C@H](c2ccc(-c3ccc(Cl)c(Cl)c3)c(OC)c2)[C@@H]2C(=O)N(C)C(=O)[C@@H]21`, the Potency is reported as inconclusive: 20.6 µM [cytotoxic, partial curve].
For `CCOC(=O)c1ccc(-n2ccnc2)c(NC(=O)c2ccc(C(C)(C)C)cc2)c1`, the Potency was “inactive”.
With `C=CCNC(=O)C1CCC(C(=O)NCC=C)CC1` (stereo unspecified) the activity change, negative = cytotoxic was inconclusive: 2.09%.
For `CCC(OC(=O)C(CC(C)C)NC(=O)c1ccccc1)C(=O)Nc1nnc(C)s1` (stereo unspecified), the Potency was “inactive”.
